In the supplement of paper PMC10849652:
Some of the results follow.

The chains behind the UniProt entries cited, without tags or fusion partners. Where a name states a change or a piece, a line headed by the entry shows the natural chain unless it says otherwise.
UniProt Q05209: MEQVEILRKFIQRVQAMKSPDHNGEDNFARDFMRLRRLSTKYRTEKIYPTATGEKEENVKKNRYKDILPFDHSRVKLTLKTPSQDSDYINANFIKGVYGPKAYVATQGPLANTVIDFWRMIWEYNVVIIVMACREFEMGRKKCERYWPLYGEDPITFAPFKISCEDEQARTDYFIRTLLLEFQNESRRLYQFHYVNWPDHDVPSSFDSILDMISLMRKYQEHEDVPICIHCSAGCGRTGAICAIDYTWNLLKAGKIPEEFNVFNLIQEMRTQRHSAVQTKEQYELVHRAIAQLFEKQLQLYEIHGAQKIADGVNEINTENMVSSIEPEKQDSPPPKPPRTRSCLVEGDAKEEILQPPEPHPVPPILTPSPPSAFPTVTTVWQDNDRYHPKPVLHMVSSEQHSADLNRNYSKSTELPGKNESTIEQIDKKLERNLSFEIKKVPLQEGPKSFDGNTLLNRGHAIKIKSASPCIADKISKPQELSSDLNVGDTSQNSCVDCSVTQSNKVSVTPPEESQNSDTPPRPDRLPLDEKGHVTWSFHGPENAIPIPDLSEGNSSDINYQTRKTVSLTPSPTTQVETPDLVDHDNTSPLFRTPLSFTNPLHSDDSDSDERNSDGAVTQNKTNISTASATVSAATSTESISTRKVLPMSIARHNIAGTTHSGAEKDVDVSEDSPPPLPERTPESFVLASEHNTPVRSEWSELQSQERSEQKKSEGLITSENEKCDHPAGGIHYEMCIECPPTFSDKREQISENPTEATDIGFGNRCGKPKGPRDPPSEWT
UniProt Q8WUY3: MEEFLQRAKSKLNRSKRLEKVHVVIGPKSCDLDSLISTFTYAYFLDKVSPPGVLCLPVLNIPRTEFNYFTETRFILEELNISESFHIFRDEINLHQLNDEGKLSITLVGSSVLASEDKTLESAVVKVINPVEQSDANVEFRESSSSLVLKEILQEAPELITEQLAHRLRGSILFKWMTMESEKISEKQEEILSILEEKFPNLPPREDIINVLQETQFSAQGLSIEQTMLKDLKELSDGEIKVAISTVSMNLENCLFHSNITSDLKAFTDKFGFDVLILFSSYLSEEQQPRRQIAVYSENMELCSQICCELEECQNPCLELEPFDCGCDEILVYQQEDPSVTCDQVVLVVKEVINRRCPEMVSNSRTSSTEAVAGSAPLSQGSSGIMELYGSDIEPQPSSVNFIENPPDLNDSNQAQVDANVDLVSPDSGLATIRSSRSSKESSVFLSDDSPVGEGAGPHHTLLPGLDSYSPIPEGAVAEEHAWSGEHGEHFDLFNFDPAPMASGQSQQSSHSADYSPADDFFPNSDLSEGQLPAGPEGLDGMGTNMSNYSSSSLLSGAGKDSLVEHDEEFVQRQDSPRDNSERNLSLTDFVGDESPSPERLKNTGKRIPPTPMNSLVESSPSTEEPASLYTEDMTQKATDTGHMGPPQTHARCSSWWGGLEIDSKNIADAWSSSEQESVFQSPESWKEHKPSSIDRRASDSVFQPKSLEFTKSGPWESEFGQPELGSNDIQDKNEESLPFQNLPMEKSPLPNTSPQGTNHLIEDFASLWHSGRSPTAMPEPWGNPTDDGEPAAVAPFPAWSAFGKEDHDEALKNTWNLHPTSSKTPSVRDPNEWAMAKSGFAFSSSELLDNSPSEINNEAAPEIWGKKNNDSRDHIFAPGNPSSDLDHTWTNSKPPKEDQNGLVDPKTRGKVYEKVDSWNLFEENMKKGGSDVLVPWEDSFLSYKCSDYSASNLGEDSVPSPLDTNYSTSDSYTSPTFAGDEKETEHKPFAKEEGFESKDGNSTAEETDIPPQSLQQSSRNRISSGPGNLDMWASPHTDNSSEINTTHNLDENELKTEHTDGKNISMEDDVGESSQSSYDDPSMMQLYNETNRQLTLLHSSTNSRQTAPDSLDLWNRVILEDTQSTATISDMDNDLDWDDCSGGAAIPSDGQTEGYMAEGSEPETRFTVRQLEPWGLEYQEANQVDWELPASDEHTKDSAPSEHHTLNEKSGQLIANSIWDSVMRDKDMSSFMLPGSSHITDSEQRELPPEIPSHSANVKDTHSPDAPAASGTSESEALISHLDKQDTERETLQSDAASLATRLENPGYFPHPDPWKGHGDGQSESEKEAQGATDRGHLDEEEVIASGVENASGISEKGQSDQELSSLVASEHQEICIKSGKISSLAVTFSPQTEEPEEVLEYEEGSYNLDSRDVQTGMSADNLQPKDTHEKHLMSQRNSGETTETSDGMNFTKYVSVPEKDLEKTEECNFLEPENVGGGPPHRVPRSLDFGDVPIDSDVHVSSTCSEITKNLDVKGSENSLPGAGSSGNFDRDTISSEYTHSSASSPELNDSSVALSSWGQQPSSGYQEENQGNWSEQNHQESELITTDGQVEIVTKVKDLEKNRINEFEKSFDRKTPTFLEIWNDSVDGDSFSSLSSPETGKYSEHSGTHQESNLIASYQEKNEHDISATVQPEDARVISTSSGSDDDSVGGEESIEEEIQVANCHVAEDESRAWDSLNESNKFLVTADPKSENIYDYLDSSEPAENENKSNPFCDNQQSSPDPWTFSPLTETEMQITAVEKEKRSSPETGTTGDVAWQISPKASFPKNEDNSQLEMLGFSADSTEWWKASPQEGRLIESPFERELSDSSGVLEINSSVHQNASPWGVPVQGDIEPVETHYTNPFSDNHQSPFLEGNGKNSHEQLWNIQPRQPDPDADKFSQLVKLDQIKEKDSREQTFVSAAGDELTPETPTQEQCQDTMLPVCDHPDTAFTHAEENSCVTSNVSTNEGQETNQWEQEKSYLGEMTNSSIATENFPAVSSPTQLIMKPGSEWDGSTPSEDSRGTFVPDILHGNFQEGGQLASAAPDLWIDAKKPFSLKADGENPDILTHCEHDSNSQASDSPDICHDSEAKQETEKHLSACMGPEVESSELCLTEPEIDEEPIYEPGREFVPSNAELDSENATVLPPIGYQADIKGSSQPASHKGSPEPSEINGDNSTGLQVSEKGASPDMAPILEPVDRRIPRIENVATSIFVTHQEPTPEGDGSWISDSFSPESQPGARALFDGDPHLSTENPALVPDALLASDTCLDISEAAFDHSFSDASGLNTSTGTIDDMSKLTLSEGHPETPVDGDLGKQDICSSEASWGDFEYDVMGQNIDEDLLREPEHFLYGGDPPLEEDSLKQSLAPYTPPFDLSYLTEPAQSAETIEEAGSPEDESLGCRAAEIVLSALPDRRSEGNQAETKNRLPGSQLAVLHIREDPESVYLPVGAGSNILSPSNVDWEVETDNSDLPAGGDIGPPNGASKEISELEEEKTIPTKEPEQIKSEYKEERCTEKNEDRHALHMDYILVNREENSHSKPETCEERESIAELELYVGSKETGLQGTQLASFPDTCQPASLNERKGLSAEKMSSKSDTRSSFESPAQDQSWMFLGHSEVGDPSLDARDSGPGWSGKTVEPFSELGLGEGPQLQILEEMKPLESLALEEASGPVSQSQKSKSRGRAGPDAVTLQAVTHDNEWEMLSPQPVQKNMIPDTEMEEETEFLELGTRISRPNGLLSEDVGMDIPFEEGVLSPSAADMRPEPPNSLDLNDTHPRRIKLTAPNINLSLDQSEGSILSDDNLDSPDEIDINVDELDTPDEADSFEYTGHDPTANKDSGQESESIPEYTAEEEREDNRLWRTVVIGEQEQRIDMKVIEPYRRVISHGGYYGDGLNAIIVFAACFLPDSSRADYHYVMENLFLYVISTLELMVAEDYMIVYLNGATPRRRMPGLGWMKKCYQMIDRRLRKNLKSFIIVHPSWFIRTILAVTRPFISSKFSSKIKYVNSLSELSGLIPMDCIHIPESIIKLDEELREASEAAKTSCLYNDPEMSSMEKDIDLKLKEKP
UniProt Q9UHX1: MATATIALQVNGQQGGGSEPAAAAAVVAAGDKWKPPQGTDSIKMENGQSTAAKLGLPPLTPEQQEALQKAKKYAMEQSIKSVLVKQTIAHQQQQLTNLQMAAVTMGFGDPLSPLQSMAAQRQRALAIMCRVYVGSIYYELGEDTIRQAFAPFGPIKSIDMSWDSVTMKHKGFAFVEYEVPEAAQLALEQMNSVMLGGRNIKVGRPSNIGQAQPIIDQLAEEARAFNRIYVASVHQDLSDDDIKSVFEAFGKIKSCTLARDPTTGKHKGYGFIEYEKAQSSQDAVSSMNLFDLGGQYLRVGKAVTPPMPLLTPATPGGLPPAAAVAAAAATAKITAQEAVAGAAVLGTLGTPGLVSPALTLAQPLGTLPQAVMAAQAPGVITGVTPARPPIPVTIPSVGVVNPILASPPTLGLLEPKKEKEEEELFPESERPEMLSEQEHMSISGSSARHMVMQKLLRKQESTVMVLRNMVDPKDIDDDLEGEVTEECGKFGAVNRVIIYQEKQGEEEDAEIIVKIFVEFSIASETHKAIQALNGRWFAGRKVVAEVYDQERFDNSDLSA
UniProt Q16378: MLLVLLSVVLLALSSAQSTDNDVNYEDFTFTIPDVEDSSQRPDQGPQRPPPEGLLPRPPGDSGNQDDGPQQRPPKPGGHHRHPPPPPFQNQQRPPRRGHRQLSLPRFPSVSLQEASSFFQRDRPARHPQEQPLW
UniProt Q9ULL5: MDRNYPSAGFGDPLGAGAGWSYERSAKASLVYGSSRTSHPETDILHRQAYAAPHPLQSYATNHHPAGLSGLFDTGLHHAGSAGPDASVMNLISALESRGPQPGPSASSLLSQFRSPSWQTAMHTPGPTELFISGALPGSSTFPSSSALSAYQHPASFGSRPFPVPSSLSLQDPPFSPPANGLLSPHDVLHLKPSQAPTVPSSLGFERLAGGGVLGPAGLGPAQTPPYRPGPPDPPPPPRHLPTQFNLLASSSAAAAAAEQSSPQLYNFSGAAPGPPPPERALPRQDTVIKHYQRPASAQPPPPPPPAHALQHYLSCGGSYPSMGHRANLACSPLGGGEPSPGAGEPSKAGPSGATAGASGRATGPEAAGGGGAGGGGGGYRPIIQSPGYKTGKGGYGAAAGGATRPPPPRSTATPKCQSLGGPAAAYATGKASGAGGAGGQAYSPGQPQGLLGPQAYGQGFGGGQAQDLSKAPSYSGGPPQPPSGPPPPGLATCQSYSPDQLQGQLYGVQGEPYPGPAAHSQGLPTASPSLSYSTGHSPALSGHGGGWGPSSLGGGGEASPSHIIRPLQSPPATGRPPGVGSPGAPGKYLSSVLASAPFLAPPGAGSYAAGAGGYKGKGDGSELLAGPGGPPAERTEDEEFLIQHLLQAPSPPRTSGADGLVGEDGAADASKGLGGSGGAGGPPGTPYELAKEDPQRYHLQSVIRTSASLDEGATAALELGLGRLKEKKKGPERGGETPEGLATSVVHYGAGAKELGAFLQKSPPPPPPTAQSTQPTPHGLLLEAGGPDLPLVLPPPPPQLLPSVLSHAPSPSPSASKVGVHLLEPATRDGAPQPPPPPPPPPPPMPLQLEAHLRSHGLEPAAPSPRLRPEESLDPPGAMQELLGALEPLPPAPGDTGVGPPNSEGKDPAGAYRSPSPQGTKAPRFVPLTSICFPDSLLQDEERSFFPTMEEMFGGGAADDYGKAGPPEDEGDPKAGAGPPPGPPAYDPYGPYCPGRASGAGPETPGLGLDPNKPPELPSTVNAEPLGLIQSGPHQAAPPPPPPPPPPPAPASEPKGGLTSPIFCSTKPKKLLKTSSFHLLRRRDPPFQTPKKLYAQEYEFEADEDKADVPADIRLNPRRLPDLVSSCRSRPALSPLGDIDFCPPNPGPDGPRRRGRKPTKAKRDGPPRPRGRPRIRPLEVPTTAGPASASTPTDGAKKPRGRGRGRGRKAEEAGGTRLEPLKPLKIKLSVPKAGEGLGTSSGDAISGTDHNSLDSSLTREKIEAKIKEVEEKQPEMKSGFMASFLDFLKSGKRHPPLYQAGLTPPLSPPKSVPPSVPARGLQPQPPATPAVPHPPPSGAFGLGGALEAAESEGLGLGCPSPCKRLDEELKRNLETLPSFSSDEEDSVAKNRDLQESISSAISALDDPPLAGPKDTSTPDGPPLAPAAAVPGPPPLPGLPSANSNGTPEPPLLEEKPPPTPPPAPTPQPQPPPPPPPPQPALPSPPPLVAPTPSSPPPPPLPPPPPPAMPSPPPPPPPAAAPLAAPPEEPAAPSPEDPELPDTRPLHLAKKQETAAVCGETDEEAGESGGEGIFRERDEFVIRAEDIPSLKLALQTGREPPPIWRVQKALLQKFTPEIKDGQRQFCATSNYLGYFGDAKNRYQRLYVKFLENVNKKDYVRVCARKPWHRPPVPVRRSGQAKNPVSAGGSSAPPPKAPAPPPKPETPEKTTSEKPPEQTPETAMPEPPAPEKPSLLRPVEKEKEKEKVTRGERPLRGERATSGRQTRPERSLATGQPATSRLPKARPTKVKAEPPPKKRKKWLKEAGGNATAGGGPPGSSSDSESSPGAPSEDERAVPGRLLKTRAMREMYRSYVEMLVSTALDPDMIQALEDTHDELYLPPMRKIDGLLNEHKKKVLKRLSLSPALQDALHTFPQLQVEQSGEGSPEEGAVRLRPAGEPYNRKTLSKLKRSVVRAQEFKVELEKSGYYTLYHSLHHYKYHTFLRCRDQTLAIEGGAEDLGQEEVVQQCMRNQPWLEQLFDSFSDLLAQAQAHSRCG

Columns and labels:
Experiment in all cases: log2 fold change, soluble protein after heating vs DMSO (PISA); higher = thermal stabilisation; K562 lysate, 10 uM; active = over 0.2 and 3.5 SD of the protein, either way, in both replicates (recomputed)
ibrutinib = compound: C=CC(=O)N1CCC[C@@H](n2nc(-c3ccc(Oc4ccccc4)cc3)c3c(N)ncnc32)C1 [ibrutinib]
Outline: (§1)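 To prepare the extract, K562 pellets were dounce-homogenised in PBS pH 7.4 with 1 mM MgCl2, giving crude material at 1 mg/mL protein. This was treated with 10 μM compound for 30 min, then heated in aliquots for 3 min over 48°C-58°C before pooling and addition of NP-40 to 0.5% at 4°C. Centrifugation at 21,000xg for 90 min left soluble protein in the supernatant, which TMTpro 16plex LC-MS/MS quantified with equalised channel sums. Results are log-two fold changes in thermal stability compared with solvent controls, from duplicates.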

[1] = compound: CC(=O)c1cnc2ccc(-c3cc(Cl)c(O)c(Cl)c3)nc2c1N[C@H]1CC[C@H](CN(C)C)CC1
Outline: as §1

ralimetinib = compound: CC(C)(C)Cn1c(N)nc2ccc(-c3[nH]c(C(C)(C)C)nc3-c3ccc(F)cc3)nc21 [ralimetinib]
Outline: as §1

[2] = compound: CC(C)(O)CC(=O)NCCn1ccc2ncnc(Nc3ccc(Oc4cccc(C(F)(F)F)c4)c(Cl)c3)c21
Outline: as §1

[3] = compound: CC(C)C1=C2N=C(C=C(N2N=C1)NCC3=CC=CC=C3)NCCCCCCN
Outline: as §1

[4] = compound: CC1=C(C(CC(=O)N1)C2=CC=C(C=C2)C(F)(F)F)C(=O)NC3=C(C=C4C(=C3)C=NN4)F
Outline: as §1

[5] = compound: CC1=C(C2=C(C=C1)C(=O)C3=CC=CC=C3N2CCCN)C
Outline: as §1

[6] = compound: CC1=C(C=C(C=C1)NC(=O)C2=CC(=CC=C2)C(C)(C)C#N)NC3=CC4=C(C=C3)N=CN(C4=O)C
Outline: as §1

[7] = compound: CC1=C(C=C(C=C1)NC(=O)C2=CC(=CC=C2)N(C)C)NC(=O)C3=CC=C(C=C3)O
Outline: as §1

[8] = compound: CC1=CC=C(C=C1)SC2=C3C=C(SC3=CN=C2)C(=O)N
Outline: as §1

Measured: log2 fold change

PTP4A2 (UniProt Q12974)
inactive: ibrutinib 0.01 | [1] 0.033 | ralimetinib 0.061 | [2] 0.019 | [3] -0.012 | [4] 0.018 | [5] 0.004 | [6] -0.002 | [7] -0.036 | [8] -0.015

PTPRS isoform 3 (UniProt Q13332)
inactive: ibrutinib 0.051 | [1] -0.019 | ralimetinib 0.025 | [2] -0.002 | [3] -0.015 | [4] 0.025 | [5] -0.031 | [6] 0.039 | [7] 0.015 | [8] 0.019

PSD4 (UniProt Q8NDX1)
inactive: ibrutinib -0.014 | [1] 0.017 | ralimetinib 0.055 | [2] -0.012 | [3] 0.006 | [4] 0.015 | [5] 0.01 | [6] 0.024 | [7] 0.042 | [8] 0.036

PTPN12 (UniProt Q05209)
inactive: ibrutinib 0.006 | [1] 0.003 | ralimetinib 0.036 | [2] -0.024 | [3] 0.003 | [4] 0.008 | [5] -0.032 | [6] 0.001 | [7] 0.026 | [8] -0.018

PTPN11 isoform 1 (UniProt Q06124)
inactive: ibrutinib 0.005 | [1] -0.009 | ralimetinib -0.004 | [2] 0.038 | [3] 0.017 | [4] -0.007 | [5] 0.004 | [6] -0.035 | [7] -0.004 | [8] 0.01

PSMA3 (UniProt P25788)
inactive: ibrutinib 0.036 | [1] 0.011 | ralimetinib 0 | [2] 0.008 | [3] -0.017 | [4] -0.023 | [5] -0.047 | [6] -0.015 | [7] -0.003 | [8] 0.006

PSMD1, A0A087WW66
inactive: ibrutinib 0.2 | [1] 0.062 | [8] -0.025

PTPA isoform 2 (UniProt Q15257)
inactive: ibrutinib 0.027 | [1] -0.004 | ralimetinib 0.009 | [2] -0.042 | [3] 0.152 | [4] -0.004 | [5] -0.007 | [6] -0.016 | [7] -0.025 | [8] -0.003

PSMD12 (UniProt O00232)
inactive: ibrutinib -0.001 | [1] 0 | ralimetinib 0.029 | [2] -0.01 | [3] 0.004 | [4] -0.012 | [5] -0.007 | [6] -0.019 | [7] 0.001 | [8] 0.026

PSMC3 (UniProt P17980)
inactive: ibrutinib 0.009 | [1] -0.003 | ralimetinib 0.017 | [2] 0.008 | [3] 0.003 | [4] -0.001 | [5] -0.006 | [6] -0.013 | [7] 0.002 | [8] 0.009

PTGES2 (UniProt Q9H7Z7)
inactive: ibrutinib -0.035 | [1] -0.092 | ralimetinib -0.004 | [2] 0.167 | [3] 0.132 | [4] -0.029 | [5] -0.002 | [6] 0.001 | [7] -0.082 | [8] 0.036

PTPRJ (UniProt Q12913)
inactive: ibrutinib 0.079 | [1] 0 | ralimetinib 0.144 | [2] 0.153 | [3] -0.03 | [4] 0.069 | [6] -0.084 | [7] -0.028 | [8] -0.09

PRXL2B isoform 3 (UniProt Q8TBF2)
inactive: ibrutinib 0.064 | [1] 0.036 | ralimetinib -0.043 | [2] -0.036 | [3] 0.057 | [4] 0.052 | [5] -0.032 | [6] 0.071 | [7] 0.017 | [8] -0.004

PRUNE2 isoform 3 (UniProt Q8WUY3)
inactive: ibrutinib -0.015 | [1] -0.093 | ralimetinib 0.018 | [2] -0.093 | [3] -0.005 | [4] 0.019 | [5] -0.052 | [6] -0.033 | [7] 0.028 | [8] -0.05

PUF60 (UniProt Q9UHX1)
inactive: ibrutinib 0.011 | [1] -0.004 | ralimetinib -0.034 | [2] 0.013 | [3] 0.018 | [4] -0.02 | [5] 0.009 | [6] -0.003 | [7] -0.001 | [8] 0.004

PSPC1 (UniProt Q8WXF1)
inactive: ibrutinib 0.019 | [1] -0.006 | ralimetinib 0.022 | [2] 0.002 | [3] 0.011 | [4] -0.003 | [5] -0.001 | [6] 0 | [7] 0.015 | [8] -0.026

PRSS2 (UniProt P07478)
inactive: [1] 0.157 | [5] -0.104 | [8] 0.222

PTPDC1 isoform 2 (UniProt A2A3K4)
inactive: ibrutinib -0.01 | [3] -0.077 | [4] 0.103 | [6] -0.042

PTPA (UniProt Q5T948)
inactive: [1] 0.028 | ralimetinib 0.12 | [2] -0.018 | [7] -0.278 | [8] 0.07

PSMA3 (UniProt H0YJ03)
inactive: [1] -0.058 | ralimetinib 0.004 | [2] -0.105 | [3] -0.07 | [5] -0.108 | [6] 0.1 | [7] 0.007 | [8] -0.006

PSME3 (UniProt K7EMD0)
inactive: [1] 0 | [4] -0.064 | [8] 0.033

PRR4 (UniProt Q16378)
inactive: [1] -0.009 | ralimetinib -0.188 | [2] 0.305 | [3] 1.86 | [4] 1.73 | [7] 0.1 | [8] -0.23

PTGES3 isoform 4 (UniProt Q15185)
inactive: ibrutinib 0.118 | ralimetinib -0.279 | [2] -0.089 | [7] 0.292

PTCD2 (UniProt Q8WV60)
inactive: [1] 0.136 | ralimetinib 0.085 | [2] -0.108 | [3] 0.028 | [4] 0.18 | [5] -0.058 | [6] 0 | [7] 0.045 | [8] -0.173

PSMB2, A0A087WVV1
inactive: ibrutinib 0.043 | [3] 0.004 | [6] -0.052

PRR12 (UniProt Q9ULL5)
inactive: ibrutinib 0.005 | ralimetinib 0.192 | [2] -0.018 | [6] 0.127 | [7] -0.017

PTBP1, A0A0U1RRM4
inactive: [1] 0.19 | [8] -0.059

PRR14L (UniProt Q5THK1)
inactive: ibrutinib 0.028 | ralimetinib -0.099 | [2] -0.02 | [3] 0.053 | [4] -0.002 | [5] -0.027 | [6] 0.061 | [7] -0.038

PSMA7 isoform 2 (UniProt O14818)
inactive: [4] -0.069 | [5] 0.172 | [6] -0.154

Two consecutive entries from above, quoted:
PRR14L (UniProt Q5THK1)
inactive: ibrutinib 0.028 | ralimetinib -0.099 | [2] -0.02 | [3] 0.053 | [4] -0.002 | [5] -0.027 | [6] 0.061 | [7] -0.038

PSMA7 isoform 2 (UniProt O14818)
inactive: [4] -0.069 | [5] 0.172 | [6] -0.154

The results go on.

PTP4A3 (UniProt O75365)
inactive: [1] 0.018 | [3] 0.04 | [5] -0.109 | [6] -0.313 | [8] 0.101

PTPN11, A0A0U1RRI0
inactive: [1] -0.041 | [8] 0.111

PRRG1 (UniProt O14668)
inactive: ralimetinib 0.081 | [2] 0.072 | [7] -0.033

PSAP isoform 2 (UniProt P07602)
inactive: [3] -0.166

Pulled one by one from the entries so far (two):
PTP4A3 (UniProt O75365)
inactive: [1] 0.018 | [3] 0.04 | [5] -0.109 | [6] -0.313 | [8] 0.101

PTPN11, A0A0U1RRI0
inactive: [1] -0.041 | [8] 0.111

Next results.

PSMD4 (UniProt Q5VWC4)
inactive: ibrutinib 0.045 | ralimetinib -0.009 | [2] 0.069 | [3] -0.151 | [4] -0.069 | [6] 0.053 | [7] 0.021
